The list shows a part of the results.
Experiments:
Test in all cases: log2 fold change, soluble protein after heating vs DMSO (PISA); higher = thermal stabilisation; K562 lysate, 10 uM; active = over 0.2 and 3.5 SD of the protein, either way, in both replicates (recomputed)
[1] = compound: C1=CC=C(C=C1)[C@H](COC2=CC3=C(C=C2)NC(=O)N3)NC(=O)C4=CC=CN(C4=O)CC5=CC(=C(C=C5)F)F
How it was run: (§1)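 K562 pellets were dounce-homogenised in PBS pH 7.4 with 1 mM MgCl2, and the crude extract at 1 mg/mL protein was treated with 10 μM compound for 30 min. Aliquots were heated for 3 min across 48°C-58°C, pooled, and brought to 0.5% NP-40 at 4°C; soluble protein was the supernatant after 21,000xg for 90 min. Soluble protein was quantified by TMTpro 16plex LC-MS/MS with channel sums equalised, and reported as log2 fold change in thermal stability against DMSO controls, with values from duplicates.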

Chains of the proteins cited; added tags and fusions are not shown. Lines headed by an entry give the natural chain unless they say otherwise; changes in a name come on top.
UniProt Q4VC31: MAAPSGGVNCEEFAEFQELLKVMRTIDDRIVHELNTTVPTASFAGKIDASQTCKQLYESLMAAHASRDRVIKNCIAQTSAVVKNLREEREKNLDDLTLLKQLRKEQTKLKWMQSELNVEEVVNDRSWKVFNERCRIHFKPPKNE
UniProt P48643, whole entry, looked up: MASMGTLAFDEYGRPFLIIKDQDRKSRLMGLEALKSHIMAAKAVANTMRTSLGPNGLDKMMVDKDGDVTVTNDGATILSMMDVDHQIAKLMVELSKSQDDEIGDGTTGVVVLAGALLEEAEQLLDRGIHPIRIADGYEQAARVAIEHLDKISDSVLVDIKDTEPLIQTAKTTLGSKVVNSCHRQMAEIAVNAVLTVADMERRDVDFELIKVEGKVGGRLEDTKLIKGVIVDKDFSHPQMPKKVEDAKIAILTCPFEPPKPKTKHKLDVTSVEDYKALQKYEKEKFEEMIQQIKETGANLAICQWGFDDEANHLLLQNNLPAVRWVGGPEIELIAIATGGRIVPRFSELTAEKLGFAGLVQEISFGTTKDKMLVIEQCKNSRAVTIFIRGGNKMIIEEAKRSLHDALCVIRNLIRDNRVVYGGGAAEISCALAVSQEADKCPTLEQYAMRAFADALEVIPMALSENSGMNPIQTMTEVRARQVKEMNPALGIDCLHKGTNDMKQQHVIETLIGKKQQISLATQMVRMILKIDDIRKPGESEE
UniProt Q9BUN5: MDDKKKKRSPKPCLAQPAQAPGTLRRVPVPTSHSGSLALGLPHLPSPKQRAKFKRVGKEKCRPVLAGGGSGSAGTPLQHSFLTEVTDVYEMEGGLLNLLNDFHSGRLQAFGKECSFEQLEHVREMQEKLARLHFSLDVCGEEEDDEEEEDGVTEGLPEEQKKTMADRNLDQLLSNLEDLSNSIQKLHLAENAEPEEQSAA
UniProt Q96NT0: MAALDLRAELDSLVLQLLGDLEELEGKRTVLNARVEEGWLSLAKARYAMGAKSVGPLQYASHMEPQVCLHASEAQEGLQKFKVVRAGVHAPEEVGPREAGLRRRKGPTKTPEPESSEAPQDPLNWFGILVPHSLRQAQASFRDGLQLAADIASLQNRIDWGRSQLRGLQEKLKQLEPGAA
UniProt P16152: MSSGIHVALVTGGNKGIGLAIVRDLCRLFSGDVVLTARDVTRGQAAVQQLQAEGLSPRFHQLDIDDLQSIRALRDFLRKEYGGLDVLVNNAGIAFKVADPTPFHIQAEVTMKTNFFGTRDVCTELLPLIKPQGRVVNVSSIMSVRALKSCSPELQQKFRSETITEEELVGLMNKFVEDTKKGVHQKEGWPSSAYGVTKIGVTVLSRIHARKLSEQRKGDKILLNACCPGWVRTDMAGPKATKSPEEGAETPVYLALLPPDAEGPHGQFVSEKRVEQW
UniProt Q08722, whole entry, looked up: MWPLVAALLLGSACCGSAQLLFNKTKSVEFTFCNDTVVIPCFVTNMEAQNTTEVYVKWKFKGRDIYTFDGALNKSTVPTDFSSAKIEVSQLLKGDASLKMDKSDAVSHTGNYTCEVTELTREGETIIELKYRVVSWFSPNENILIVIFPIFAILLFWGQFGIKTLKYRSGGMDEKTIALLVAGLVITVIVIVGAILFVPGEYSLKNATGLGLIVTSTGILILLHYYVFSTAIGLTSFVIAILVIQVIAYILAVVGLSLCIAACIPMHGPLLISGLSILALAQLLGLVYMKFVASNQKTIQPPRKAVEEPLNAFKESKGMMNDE
UniProt P08174: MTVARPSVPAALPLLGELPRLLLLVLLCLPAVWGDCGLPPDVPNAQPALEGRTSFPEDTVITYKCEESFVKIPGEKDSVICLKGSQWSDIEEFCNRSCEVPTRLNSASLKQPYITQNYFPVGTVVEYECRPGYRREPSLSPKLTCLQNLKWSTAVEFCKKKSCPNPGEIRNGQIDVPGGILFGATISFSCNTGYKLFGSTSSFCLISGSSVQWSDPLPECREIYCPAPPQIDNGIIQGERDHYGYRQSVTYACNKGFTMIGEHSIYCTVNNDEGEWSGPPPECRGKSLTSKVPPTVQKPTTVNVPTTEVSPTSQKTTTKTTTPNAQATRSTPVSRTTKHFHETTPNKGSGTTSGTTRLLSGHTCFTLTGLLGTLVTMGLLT
UniProt O15234, whole entry, looked up: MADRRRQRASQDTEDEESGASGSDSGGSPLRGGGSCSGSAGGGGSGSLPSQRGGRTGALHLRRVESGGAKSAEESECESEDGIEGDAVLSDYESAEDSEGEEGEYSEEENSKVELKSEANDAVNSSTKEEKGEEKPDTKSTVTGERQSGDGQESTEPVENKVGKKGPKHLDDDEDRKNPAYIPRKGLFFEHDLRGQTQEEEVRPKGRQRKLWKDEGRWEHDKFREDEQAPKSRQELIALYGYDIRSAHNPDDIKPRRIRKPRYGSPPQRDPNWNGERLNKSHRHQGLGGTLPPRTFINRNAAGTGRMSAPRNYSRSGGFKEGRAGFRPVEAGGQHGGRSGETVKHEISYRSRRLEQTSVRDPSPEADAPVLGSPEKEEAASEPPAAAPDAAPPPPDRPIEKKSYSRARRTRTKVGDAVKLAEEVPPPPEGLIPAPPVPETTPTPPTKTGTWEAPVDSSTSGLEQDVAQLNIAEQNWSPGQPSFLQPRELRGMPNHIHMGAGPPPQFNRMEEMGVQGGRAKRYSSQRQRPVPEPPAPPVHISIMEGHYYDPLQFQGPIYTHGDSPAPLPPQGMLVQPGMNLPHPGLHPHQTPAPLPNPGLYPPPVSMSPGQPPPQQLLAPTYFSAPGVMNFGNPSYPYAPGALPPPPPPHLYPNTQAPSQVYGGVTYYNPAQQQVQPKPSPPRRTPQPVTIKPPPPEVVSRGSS
UniProt P35520: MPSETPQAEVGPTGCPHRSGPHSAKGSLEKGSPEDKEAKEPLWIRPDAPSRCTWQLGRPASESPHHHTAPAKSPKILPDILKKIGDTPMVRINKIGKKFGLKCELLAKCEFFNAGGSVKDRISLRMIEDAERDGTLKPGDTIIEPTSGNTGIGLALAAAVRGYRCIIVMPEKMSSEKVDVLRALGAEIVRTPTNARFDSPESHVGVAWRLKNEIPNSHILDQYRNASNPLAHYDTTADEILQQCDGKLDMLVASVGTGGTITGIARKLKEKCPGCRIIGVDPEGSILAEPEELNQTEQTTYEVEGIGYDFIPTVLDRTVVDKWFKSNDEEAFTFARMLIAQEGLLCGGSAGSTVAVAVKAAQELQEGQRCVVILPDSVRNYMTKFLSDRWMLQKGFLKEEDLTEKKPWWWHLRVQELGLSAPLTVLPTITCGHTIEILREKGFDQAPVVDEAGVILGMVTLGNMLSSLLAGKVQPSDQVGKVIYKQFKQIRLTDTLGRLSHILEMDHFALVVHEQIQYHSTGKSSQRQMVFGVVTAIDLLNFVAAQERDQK
UniProt O15446, whole entry, looked up: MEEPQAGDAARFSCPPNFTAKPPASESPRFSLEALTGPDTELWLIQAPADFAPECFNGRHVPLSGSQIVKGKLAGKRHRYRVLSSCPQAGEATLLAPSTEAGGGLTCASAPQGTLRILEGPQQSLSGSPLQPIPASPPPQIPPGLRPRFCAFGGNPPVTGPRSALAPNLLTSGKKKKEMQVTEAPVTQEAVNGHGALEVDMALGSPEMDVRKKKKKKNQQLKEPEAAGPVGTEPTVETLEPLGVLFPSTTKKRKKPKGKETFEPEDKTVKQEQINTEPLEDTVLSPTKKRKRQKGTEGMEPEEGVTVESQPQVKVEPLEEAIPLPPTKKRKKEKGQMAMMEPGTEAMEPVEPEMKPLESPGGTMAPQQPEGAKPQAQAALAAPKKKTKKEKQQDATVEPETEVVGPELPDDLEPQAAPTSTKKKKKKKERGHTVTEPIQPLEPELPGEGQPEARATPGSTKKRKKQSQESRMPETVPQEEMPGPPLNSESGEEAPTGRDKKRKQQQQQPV
UniProt Q15834: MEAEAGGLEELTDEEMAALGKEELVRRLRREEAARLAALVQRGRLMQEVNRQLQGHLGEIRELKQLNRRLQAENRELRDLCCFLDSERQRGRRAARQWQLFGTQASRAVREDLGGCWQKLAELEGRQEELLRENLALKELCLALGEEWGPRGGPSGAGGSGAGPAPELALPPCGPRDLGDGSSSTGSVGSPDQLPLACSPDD
UniProt Q9BV29: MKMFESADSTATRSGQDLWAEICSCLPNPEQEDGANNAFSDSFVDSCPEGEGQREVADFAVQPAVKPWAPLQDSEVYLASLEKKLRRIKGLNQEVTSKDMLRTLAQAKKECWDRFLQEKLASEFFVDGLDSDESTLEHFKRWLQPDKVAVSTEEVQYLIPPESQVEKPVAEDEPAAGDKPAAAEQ
UniProt Q7Z3E2: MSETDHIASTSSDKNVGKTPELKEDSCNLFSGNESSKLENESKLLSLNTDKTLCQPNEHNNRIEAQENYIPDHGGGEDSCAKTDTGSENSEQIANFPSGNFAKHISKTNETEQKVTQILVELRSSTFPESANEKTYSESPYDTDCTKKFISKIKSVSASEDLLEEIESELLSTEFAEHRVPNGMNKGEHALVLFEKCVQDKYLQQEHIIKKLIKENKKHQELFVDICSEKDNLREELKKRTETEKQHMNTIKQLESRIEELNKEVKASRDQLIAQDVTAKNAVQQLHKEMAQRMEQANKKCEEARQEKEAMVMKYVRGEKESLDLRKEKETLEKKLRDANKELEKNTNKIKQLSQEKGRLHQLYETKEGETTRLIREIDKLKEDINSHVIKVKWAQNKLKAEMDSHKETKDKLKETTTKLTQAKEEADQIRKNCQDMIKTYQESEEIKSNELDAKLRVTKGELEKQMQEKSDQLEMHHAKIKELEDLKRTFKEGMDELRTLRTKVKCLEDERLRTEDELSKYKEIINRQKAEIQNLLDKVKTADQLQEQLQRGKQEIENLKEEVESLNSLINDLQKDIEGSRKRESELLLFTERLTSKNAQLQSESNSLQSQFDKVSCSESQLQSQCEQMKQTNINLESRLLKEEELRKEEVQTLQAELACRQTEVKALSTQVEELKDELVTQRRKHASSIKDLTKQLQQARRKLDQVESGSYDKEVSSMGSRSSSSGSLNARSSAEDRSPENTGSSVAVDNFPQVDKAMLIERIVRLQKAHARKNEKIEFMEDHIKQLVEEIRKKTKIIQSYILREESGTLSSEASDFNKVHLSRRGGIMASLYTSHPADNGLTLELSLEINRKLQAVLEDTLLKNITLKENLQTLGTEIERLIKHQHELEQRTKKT
UniProt P55211: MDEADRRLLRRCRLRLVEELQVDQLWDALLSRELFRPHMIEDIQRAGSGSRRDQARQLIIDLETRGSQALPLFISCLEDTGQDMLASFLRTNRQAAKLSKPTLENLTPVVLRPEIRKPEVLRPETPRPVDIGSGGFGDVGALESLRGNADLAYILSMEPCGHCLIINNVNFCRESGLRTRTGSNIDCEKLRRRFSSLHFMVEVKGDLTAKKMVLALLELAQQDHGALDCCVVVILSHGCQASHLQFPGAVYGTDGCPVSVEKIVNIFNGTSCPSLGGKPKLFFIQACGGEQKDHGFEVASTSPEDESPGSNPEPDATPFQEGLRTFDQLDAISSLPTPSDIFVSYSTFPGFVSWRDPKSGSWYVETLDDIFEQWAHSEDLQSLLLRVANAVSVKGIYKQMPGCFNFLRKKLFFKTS
UniProt O75909: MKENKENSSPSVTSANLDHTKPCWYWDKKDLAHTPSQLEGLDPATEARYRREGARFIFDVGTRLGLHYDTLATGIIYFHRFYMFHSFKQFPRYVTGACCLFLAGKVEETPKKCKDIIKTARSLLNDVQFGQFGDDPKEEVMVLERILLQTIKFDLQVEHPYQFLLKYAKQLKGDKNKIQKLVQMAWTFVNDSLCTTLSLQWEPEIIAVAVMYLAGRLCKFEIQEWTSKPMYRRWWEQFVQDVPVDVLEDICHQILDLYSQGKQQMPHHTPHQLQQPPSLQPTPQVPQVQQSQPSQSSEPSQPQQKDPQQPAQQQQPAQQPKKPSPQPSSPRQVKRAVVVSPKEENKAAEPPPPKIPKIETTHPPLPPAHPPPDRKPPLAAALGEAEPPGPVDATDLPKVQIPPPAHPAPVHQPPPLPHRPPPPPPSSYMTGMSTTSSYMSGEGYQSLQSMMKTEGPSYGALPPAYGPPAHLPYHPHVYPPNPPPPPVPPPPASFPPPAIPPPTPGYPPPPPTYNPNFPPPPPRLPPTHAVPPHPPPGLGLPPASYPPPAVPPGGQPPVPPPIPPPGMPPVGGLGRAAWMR
UniProt Q14790: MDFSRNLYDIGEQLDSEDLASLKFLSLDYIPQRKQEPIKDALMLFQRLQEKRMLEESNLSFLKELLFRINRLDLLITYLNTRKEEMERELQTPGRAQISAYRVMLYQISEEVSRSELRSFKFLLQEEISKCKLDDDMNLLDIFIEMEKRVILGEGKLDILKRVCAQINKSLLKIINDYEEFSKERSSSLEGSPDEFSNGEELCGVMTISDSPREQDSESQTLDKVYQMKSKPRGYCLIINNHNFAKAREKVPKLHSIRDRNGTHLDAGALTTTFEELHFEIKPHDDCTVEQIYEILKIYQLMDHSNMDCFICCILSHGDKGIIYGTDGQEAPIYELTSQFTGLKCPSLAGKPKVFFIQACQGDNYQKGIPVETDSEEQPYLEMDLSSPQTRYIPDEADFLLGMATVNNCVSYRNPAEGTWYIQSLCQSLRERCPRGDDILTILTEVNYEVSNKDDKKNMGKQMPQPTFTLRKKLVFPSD

[2] = compound: CC1=C(SC2=C1C(=N[C@H](C3=NN=C(N32)C)CC(=O)N)C4=CC=C(C=C4)Cl)C
How it was run: as §1

[3] = compound: CC1=C2C(=CC=C1)N=C(N(C2=O)C3=CC=CC=C3C)CN4C=NC5=C(N=CN=C54)N
How it was run: as §1

[4] = compound: Cc1sc2c(c1C)C(c1ccc(Cl)cc1)=N[C@@H](CC(=O)OC(C)(C)C)c1nnc(C)n1-2
How it was run: as §1

[5] = compound: c1ccc([C@@H]2C[C@H]2NC2CCNCC2)cc1
How it was run: as §1

Measured: log2 fold change

CCDC58 (UniProt Q4VC31)
inactive: [1] 0.062 | [2] -0.019 | [3] -0.049 | [4] 0.049 | [5] 0.06

CCNDBP1 (UniProt O95273)
inactive: [1] 0.029 | [2] 0.002 | [3] -0.203 | [4] -0.007 | [5] 0.073

CCT5 (UniProt P48643)
inactive: [1] 0.004 | [2] -0.009 | [3] -0.006 | [4] 0.033 | [5] -0.019

CBX4 (UniProt O00257)
inactive: [1] -0.094 | [2] -0.002 | [3] -0.078 | [4] -0.062 | [5] 0.094

CBFA2T3 (UniProt O75081)
inactive: [1] -0.029 | [2] -0.01 | [3] 0.058 | [4] 0.009 | [5] 0.019

CD58 (UniProt P19256)
inactive: [1] -0.02 | [2] 0.024 | [3] -0.005 | [4] -0.038 | [5] -0.09

CCDC28B (UniProt Q9BUN5)
inactive: [1] 0.077 | [2] -0.019 | [3] -0.006 | [4] -0.104 | [5] 0.008

CCDC12 (UniProt Q8WUD4)
inactive: [1] 0.114 | [2] -0.041 | [3] 0.03 | [4] 0.004 | [5] 0.009

CARM1 (UniProt Q86X55)
inactive: [1] 0.012 | [2] 0.02 | [3] 0.002 | [4] -0.016 | [5] -0.004

CCDC22 (UniProt O60826)
inactive: [1] -0.009 | [2] 0 | [3] -0.044 | [4] 0.053 | [5] 0.032

5 entries picked at random from those above, as already listed:
CCDC12 (UniProt Q8WUD4)
inactive: [1] 0.114 | [2] -0.041 | [3] 0.03 | [4] 0.004 | [5] 0.009

CCT5 (UniProt P48643)
inactive: [1] 0.004 | [2] -0.009 | [3] -0.006 | [4] 0.033 | [5] -0.019

CCDC22 (UniProt O60826)
inactive: [1] -0.009 | [2] 0 | [3] -0.044 | [4] 0.053 | [5] 0.032

CBFA2T3 (UniProt O75081)
inactive: [1] -0.029 | [2] -0.01 | [3] 0.058 | [4] 0.009 | [5] 0.019

CBX4 (UniProt O00257)
inactive: [1] -0.094 | [2] -0.002 | [3] -0.078 | [4] -0.062 | [5] 0.094

More entries

CCDC115 (UniProt Q96NT0)
inactive: [1] -0.01 | [2] -0.014 | [3] 0.032 | [4] 0.047 | [5] -0.026

CCT7 (UniProt Q99832)
inactive: [1] -0.012 | [2] -0.012 | [3] -0.022 | [4] 0.014 | [5] 0.019

CCNY (UniProt Q8ND76)
inactive: [1] -0.04 | [2] 0.048 | [3] -0.104 | [4] -0.064 | [5] -0.028

CD59 isoform 2 (UniProt P13987)
inactive: [1] -0.026 | [2] 0.032 | [3] 0.017 | [4] -0.028 | [5] -0.001

CCT6A (UniProt P40227)
inactive: [1] 0.007 | [2] -0.007 | [3] -0.01 | [4] 0.004 | [5] 0.025

CBR1 (UniProt P16152)
inactive: [1] 0.03 | [2] -0.004 | [3] 0.013 | [4] -0.021 | [5] -0.056

CD47 (UniProt Q08722)
inactive: [1] 0.015 | [2] -0.002 | [3] -0.01 | [4] -0.007 | [5] -0.096

CCDC85C (UniProt A6NKD9)
inactive: [1] 0.049 | [2] 0.071 | [3] -0.04 | [4] 0.001 | [5] 0.077

CCDC28A (UniProt Q8IWP9)
inactive: [1] 0.074 | [2] 0.081 | [3] 0.033 | [4] -0.109 | [5] -0.01

CCDC6 (UniProt Q16204)
inactive: [1] 0.017 | [2] 0.005 | [3] 0.003 | [4] -0.01 | [5] -0.027

CCNB2 (UniProt O95067)
inactive: [1] -0.005 | [2] 0.026 | [3] 0.047 | [4] 0.048 | [5] 0.033

CCM2 isoform 2 (UniProt Q9BSQ5)
inactive: [1] 0.035 | [2] 0.007 | [3] 0.029 | [4] 0.015 | [5] 0.01

CCDC82 (UniProt Q8N4S0)
inactive: [1] 0.046 | [2] -0.045 | [3] -0.049 | [4] -0.036 | [5] 0.053

CCDC91 (UniProt Q7Z6B0)
inactive: [1] 0.002 | [2] -0.027 | [3] 0 | [4] -0.013 | [5] 0.036

CBFB isoform 2 (UniProt Q13951)
inactive: [1] 0.012 | [2] -0.01 | [3] 0.032 | [4] -0.034 | [5] -0.122

CCNH (UniProt P51946)
inactive: [1] -0.028 | [2] -0.004 | [3] 0.022 | [4] -0.039 | [5] -0.01

CCNYL1 (UniProt Q8N7R7)
inactive: [1] -0.007 | [2] -0.089 | [3] -0.009 | [4] -0.058 | [5] -0.079

CD55 isoform 7 (UniProt P08174)
inactive: [1] 0 | [2] 0.007 | [3] 0.003 | [4] -0.012 | [5] -0.057

CCDC117 (UniProt Q8IWD4)
inactive: [1] 0.075 | [2] -0.054 | [3] 0.123 | [4] -0.011 | [5] -0.005

CASP3 (UniProt P42574)
inactive: [1] 0.051 | [2] -0.011 | [3] 0.039 | [4] 0.051 | [5] 0.103

CASC3 (UniProt O15234)
inactive: [1] 0.013 | [2] 0.015 | [3] -0.016 | [4] 0.032 | [5] -0.039

CC2D1A (UniProt Q6P1N0)
inactive: [1] 0.032 | [2] -0.029 | [3] 0.05 | [4] -0.005 | [5] -0.001

CD46 isoform 2 (UniProt P15529)
inactive: [1] 0.006 | [2] 0.007 | [3] -0.006 | [4] -0.096 | [5] 0.035

CBS (UniProt P35520)
inactive: [1] -0.017 | [2] 0.013 | [3] -0.001 | [4] 0.034 | [5] 0.028

CD2BP2 (UniProt O95400)
inactive: [1] 0.038 | [2] 0.037 | [3] -0.015 | [4] -0.007 | [5] 0.079

CASP2 (UniProt P42575)
inactive: [1] 0.018 | [2] 0.054 | [3] -0.031 | [4] 0.041 | [5] -0.021

CD3EAP isoform 2 (UniProt O15446)
inactive: [1] 0.001 | [2] 0.017 | [3] -0.011 | [4] -0.043 | [5] -0.057

CCAR2 (UniProt Q8N163)
inactive: [1] 0.001 | [2] 0.005 | [3] -0.007 | [4] 0.003 | [5] 0.004

CD320 (UniProt Q9NPF0)
inactive: [1] 0.09 | [2] -0.089 | [3] 0.011 | [4] 0.017 | [5] -0.027

CCDC85B (UniProt Q15834)
inactive: [1] -0.033 | [2] -0.132 | [3] 0.08 | [4] -0.04 | [5] -0.034

CD63 (UniProt P08962)
inactive: [1] 0.006 | [2] 0.001 | [3] -0.008 | [4] -0.13 | [5] -0.242

CAVIN2 (UniProt O95810)
inactive: [1] 0.032 | [2] 0.021 | [3] -0.04 | [4] -0.027 | [5] 0.011

CCDC9 (UniProt Q9Y3X0)
inactive: [1] 0.043 | [2] 0.03 | [3] -0.024 | [4] -0.025 | [5] -0.065

CCDC32 isoform 2 (UniProt Q9BV29)
inactive: [1] -0.132 | [2] -0.103 | [3] -0.058 | [4] 0.015 | [5] -0.109

CCDC186 (UniProt Q7Z3E2)
inactive: [1] 0.031 | [2] 0.085 | [3] 0.055 | [4] -0.016 | [5] 0.105

CASP9 (UniProt P55211)
inactive: [1] 0.041 | [2] -0.024 | [3] 0.019 | [4] -0.05 | [5] -0.048

CBWD2 (UniProt Q8IUF1)
inactive: [1] 0.033 | [2] 0.023 | [3] 0.079 | [4] 0.008 | [5] 0.162

CARNMT1 (UniProt Q8N4J0)
inactive: [1] 0.032 | [2] -0.003 | [3] 0.072 | [4] -0.039 | [5] -0.174

CCS (UniProt O14618)
inactive: [1] -0.024 | [2] -0.026 | [3] 0.015 | [4] -0.018 | [5] -0.01

CCNK isoform 4 (UniProt O75909)
inactive: [1] -0.018 | [2] -0.045 | [3] -0.026 | [4] -0.047 | [5] -0.175

CCDC57 (UniProt Q2TAC2)
inactive: [1] -0.039 | [2] 0.001 | [3] -0.013 | [4] 0.012 | [5] -0.019

CASKIN2 (UniProt Q8WXE0)
inactive: [1] 0.046 | [2] -0.027 | [3] -0.098 | [4] -0.023 | [5] -0.023

CASP8 isoform 4 (UniProt Q14790)
inactive: [1] -0.385 | [2] -0.135 | [4] 0.06

CBX8 (UniProt Q9HC52)
inactive: [3] 0.009

CCND1 (UniProt P24385)
inactive: [5] -0.085

— the supplement of paper PMC10849652
